Source: the supplement of paper PMC10849652
Some of the results follow.

The chains behind the UniProt entries cited, without tags or fusion partners. Where a name states a change or a piece, a line headed by the entry shows the natural chain unless it says otherwise.
UniProt Q8IWZ3: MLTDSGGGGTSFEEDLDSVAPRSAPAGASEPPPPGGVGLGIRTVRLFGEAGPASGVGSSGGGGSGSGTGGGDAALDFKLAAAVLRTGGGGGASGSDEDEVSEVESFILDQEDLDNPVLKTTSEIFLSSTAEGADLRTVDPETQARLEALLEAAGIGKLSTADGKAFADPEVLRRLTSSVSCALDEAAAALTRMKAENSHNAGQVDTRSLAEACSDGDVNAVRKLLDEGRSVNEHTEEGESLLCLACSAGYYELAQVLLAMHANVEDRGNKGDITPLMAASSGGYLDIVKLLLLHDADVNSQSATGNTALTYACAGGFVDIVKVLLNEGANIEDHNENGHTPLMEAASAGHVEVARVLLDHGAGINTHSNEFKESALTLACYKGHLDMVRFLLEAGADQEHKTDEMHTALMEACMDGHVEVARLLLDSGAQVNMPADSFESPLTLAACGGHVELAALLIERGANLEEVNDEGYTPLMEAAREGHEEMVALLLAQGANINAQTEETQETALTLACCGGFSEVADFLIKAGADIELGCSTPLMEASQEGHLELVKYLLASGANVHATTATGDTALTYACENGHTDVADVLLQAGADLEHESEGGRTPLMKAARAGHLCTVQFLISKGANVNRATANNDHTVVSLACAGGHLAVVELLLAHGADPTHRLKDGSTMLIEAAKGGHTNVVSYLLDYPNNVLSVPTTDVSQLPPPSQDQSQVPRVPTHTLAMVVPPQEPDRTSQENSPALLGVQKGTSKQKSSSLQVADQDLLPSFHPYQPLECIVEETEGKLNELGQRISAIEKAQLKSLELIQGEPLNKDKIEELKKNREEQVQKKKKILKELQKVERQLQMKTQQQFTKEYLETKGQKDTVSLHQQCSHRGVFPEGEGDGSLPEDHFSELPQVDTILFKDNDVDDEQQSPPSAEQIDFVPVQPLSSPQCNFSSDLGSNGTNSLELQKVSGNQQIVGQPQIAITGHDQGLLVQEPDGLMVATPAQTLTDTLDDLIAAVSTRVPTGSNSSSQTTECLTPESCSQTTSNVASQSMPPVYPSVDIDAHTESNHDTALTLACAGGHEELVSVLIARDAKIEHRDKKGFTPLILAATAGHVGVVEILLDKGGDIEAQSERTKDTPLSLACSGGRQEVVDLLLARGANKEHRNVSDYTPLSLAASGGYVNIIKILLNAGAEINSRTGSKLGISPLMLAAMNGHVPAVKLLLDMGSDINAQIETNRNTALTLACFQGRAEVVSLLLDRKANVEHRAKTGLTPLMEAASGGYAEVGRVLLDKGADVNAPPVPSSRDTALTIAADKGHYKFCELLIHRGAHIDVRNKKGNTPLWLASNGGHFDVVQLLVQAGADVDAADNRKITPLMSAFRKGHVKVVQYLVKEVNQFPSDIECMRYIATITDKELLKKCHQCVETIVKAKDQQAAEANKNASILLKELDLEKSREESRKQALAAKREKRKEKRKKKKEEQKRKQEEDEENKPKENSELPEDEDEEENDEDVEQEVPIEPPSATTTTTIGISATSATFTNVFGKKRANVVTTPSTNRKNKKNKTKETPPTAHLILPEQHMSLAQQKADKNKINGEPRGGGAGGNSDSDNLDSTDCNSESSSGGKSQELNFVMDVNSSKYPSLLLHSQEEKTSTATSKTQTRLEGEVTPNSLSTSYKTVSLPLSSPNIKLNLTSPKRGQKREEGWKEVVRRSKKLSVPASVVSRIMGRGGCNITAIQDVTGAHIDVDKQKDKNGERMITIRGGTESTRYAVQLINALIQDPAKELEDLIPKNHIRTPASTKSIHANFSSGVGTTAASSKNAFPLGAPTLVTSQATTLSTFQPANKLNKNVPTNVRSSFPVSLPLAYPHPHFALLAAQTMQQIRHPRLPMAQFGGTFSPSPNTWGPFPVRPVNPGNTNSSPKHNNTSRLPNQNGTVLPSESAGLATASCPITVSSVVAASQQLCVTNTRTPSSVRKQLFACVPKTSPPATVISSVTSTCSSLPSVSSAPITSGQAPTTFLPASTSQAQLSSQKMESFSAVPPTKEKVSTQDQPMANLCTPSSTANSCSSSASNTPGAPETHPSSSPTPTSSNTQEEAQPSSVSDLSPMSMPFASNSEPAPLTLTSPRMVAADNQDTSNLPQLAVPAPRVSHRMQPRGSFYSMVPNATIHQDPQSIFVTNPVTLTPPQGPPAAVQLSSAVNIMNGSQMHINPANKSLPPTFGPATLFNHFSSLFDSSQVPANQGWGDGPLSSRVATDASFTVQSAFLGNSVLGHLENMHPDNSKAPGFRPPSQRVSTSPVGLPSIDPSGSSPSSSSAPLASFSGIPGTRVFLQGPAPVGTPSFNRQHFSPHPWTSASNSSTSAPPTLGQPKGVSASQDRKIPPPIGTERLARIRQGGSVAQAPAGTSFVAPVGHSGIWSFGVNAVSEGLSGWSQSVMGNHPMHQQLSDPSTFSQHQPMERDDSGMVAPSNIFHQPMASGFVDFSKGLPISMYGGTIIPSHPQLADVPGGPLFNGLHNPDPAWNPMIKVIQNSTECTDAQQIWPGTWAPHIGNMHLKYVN
UniProt Q8NB46: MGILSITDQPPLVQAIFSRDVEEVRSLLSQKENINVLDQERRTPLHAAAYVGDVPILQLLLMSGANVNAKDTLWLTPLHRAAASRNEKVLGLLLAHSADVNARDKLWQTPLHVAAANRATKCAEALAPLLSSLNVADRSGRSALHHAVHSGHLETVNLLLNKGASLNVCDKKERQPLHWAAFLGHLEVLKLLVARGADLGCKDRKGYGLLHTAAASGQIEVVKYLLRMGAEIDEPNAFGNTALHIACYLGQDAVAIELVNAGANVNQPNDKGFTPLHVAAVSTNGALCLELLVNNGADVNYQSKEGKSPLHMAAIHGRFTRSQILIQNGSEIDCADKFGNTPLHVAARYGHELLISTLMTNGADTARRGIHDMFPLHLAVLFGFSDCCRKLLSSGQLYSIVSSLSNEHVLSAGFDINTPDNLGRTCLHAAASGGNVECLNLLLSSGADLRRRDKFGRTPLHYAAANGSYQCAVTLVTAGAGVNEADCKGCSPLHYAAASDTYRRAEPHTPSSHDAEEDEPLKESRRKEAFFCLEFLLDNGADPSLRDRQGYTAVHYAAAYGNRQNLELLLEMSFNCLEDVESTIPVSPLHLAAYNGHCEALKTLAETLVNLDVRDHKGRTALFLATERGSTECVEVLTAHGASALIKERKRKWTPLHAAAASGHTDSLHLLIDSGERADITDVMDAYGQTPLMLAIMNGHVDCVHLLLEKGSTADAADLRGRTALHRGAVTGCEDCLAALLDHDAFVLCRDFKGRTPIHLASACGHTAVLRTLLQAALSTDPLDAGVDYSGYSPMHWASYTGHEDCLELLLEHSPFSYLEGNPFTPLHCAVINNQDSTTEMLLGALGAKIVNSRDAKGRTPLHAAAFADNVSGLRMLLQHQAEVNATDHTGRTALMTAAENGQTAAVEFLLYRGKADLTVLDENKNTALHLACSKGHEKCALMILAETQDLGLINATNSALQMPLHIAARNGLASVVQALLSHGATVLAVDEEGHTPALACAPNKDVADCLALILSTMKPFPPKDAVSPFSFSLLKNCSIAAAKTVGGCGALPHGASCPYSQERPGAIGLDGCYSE
UniProt Q6DCA0: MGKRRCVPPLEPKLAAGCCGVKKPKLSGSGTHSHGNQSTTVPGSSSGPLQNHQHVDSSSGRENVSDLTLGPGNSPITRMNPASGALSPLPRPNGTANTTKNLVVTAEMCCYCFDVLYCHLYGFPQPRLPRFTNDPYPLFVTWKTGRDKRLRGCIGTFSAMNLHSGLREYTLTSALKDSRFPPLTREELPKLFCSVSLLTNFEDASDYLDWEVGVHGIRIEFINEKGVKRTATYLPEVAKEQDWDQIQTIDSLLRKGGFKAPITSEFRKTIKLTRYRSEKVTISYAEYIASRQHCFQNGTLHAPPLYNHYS
UniProt P54886: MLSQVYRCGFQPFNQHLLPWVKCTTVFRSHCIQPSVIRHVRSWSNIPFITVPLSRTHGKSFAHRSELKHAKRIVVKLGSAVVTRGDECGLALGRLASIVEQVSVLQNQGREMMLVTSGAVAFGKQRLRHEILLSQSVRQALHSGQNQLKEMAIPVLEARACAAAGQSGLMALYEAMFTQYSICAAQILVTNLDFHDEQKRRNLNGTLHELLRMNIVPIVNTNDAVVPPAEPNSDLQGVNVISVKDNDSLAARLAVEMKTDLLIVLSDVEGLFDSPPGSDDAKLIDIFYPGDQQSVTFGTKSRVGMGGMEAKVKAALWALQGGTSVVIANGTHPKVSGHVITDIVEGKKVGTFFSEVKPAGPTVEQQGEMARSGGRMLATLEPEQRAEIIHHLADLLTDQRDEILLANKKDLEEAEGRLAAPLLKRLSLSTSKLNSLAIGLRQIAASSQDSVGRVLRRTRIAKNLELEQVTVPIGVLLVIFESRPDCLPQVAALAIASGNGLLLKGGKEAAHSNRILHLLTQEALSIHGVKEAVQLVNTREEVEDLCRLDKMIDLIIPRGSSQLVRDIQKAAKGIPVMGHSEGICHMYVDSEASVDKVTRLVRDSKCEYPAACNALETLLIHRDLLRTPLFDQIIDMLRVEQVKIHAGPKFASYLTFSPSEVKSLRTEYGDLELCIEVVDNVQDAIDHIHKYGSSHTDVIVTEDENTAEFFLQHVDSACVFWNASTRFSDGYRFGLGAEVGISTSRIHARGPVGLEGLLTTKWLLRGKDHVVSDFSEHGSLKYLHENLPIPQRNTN
UniProt Q9NW15: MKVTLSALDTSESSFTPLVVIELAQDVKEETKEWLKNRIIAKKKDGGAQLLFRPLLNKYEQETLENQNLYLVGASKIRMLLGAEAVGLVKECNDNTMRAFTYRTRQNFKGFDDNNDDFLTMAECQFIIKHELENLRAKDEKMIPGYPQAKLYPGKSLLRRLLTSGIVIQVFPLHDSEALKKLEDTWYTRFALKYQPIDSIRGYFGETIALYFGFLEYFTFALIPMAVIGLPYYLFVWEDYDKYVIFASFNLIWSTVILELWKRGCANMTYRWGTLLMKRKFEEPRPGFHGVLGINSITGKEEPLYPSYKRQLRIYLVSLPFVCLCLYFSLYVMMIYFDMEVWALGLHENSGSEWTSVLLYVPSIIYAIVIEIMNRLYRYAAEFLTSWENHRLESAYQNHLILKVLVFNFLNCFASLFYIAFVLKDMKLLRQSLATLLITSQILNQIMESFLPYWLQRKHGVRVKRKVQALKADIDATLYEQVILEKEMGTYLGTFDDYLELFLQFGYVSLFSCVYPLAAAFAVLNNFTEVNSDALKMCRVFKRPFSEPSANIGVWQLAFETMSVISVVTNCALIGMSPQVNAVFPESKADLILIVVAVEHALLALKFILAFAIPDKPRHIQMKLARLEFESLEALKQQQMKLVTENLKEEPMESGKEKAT
UniProt Q5I7T1: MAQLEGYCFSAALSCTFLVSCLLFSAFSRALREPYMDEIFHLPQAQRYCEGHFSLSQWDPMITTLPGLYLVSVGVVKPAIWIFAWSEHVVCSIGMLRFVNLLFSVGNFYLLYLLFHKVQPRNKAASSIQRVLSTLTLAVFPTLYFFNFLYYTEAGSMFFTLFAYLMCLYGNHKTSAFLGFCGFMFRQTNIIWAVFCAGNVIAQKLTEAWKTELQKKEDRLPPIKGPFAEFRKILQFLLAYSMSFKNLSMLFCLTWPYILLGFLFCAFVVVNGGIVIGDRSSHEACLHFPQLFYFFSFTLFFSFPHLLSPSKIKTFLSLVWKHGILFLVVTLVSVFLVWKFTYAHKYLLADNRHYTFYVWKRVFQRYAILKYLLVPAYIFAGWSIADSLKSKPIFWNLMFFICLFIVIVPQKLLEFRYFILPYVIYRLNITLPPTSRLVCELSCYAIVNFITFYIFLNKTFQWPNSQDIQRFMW
UniProt Q96PC3: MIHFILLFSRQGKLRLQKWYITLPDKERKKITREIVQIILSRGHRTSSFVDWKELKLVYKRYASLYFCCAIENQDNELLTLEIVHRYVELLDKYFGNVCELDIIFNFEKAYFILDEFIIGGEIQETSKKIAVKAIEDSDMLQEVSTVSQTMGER
UniProt Q86W74: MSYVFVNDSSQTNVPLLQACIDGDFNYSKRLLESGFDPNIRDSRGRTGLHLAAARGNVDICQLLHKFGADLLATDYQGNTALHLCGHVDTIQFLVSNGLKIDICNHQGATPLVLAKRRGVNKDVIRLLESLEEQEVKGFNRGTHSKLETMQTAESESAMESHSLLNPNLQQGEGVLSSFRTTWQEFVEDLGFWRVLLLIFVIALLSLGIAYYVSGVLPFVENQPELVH
UniProt P27216: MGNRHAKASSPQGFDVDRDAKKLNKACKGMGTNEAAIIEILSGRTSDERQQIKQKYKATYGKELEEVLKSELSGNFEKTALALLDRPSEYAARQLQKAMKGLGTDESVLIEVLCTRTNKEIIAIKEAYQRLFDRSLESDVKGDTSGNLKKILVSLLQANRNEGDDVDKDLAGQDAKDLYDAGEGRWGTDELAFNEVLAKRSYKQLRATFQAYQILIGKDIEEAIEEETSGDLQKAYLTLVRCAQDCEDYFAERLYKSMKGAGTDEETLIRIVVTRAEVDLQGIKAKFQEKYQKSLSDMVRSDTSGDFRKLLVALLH

compound: C1CN(CCC1(CC2=CC=C(C=C2)Cl)N)C3=NC=NC4=C3C=CN4; test: log2 fold change, soluble protein after heating vs DMSO (PISA); higher = thermal stabilisation; K562 lysate, 10 uM; active = over 0.2 and 3.5 SD of the protein, either way, in both replicates (recomputed)
In short: (§1)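 Thermal stability, expressed as log-two fold change relative to solvent controls, is given from duplicates. Crude K562 extract in PBS pH 7.4 with 1 mM MgCl2, at 1 mg/mL protein, was treated with 10 μM compound for 30 min and heated in aliquots for 3 min across 48°C-58°C. After pooling, adjustment to 0.5% NP-40 at 4°C and centrifugation at 21,000xg for 90 min, supernatant protein was measured by TMTpro 16plex LC-MS/MS with channel sums equalised.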

log2 fold change, inactive:
ANKHD1 isoform 2 (UniProt Q8IWZ3) -0.015
ALKBH1 (UniProt Q13686) 0.041
ANKRD52 (UniProt Q8NB46) 0.072
AMMECR1L (UniProt Q6DCA0) 0.082
ANKRD29 (UniProt Q8N6D5) 0.205
ALKBH6 isoform 2 (UniProt Q3KRA9) 0.012
AMBRA1 isoform 5 (UniProt Q9C0C7) 0.14
AKT1S1 isoform 3 (UniProt Q96B36) -0.034
ALDH18A1 (UniProt P54886) 0.001
ALDOA (UniProt H3BPS8) 0.253
ANGPTL4 (UniProt M0R3A2) -0.067
ANKH (UniProt Q9HCJ1) 0.002
AMFR (UniProt Q9UKV5) 0.069
ANO10 (UniProt Q9NW15) -0.011
ANKRD44 isoform 2 (UniProt Q8N8A2) -0.032
ANKRD40 (UniProt Q6AI12) 0.203
AP1S1 (UniProt P61966) -0.018
AP4E1 (UniProt Q9UPM8) -0.032
ANKRD11 (UniProt Q6UB99) -0.016
AP2M1 (UniProt Q96CW1) 0.007
ANAPC16 (UniProt Q96DE5) -0.112

compound: C1COCCN1CCN2C3=CC=CC=C3N=C2NC(=O)C4=CC(=CC=C4)[N+](=O)[O-] [IRAK-1-4 Inhibitor I]; test: as above
In short: as §1

log2 fold change, inactive:
ALOX12B (UniProt O75342) -0.137
ANKHD1 isoform 2 (UniProt Q8IWZ3) -0.036
ALKBH1 (UniProt Q13686) -0.11
ANKRD52 (UniProt Q8NB46) 0.051
AMMECR1L (UniProt Q6DCA0) -0.049
ALG10B (UniProt Q5I7T1) 0.047
ALKBH6 isoform 2 (UniProt Q3KRA9) -0.015
ALG11 (UniProt Q2TAA5) 0.012
AMBRA1 isoform 5 (UniProt Q9C0C7) -0.061
AKT1S1 isoform 3 (UniProt Q96B36) -0.02
ALDH18A1 (UniProt P54886) -0.006
ANGPTL4 (UniProt M0R3A2) 0.122
ANKH (UniProt Q9HCJ1) 0.197
AMFR (UniProt Q9UKV5) 0.021
ANO10 (UniProt Q9NW15) -0.011
AP1S3 isoform 4 (UniProt Q96PC3) -0.025
ANKRD46 (UniProt Q86W74) 0.072
ANKRD40 (UniProt Q6AI12) -0.091
AP1S1 (UniProt P61966) -0.002
AP4E1 (UniProt Q9UPM8) 0.012
ANKRD11 (UniProt Q6UB99) -0.01
ANXA13 isoform 2 (UniProt P27216) -0.174
AP2M1 (UniProt Q96CW1) 0.025
ANAPC16 (UniProt Q96DE5) -0.017
ANKRD10 (UniProt Q9NXR5) -0.059
ANXA2 (UniProt H0YL33) -0.031
